Results are given in words; binding and its absence hold for the method and conditions named. Some results given as binding are weak or reduced against the parent protein; the word gives no strength.
Target: T1, mouse GDF-15 (mouse, UniProt Q9Z0J7 189-303)
T1 construct: also called mGDF-15
T1 sequence: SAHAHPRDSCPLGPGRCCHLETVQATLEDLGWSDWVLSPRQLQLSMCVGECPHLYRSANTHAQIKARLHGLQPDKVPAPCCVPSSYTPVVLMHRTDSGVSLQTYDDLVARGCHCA
Assay: HTRF binding assay, biotinylated antigen, titration of antibody
Description: Supernatants generated from the immunizations with human GDF-15 and purified IgGs were screened to identify IgGs with specific binding to human, cynomolgus, or mouse GDF-15. The HTRF (Homogeneous Time Resolved Fluorescence) assay is based on detection of a measurable FRET signal upon binding of a titration of test antibody to biotinylated human H202D GDF-15 variant, cynomolgus GDF-15 and mouse GDF-15. Europium cryptate (EuK) labelled Streptavidin and anti-human IgG XL665 (Cis Bio) were used as secondary detection reagents serving as energy donor and acceptor respectively. In the absence of test antibody binding, there is no detectable FRET fluorescence. When test antibody binds to GDF-15, the resulting physical proximity between the secondary reagent donor/acceptor pair results in FRET. FRET was measured ratiometrically [665 nm (acceptor)/620 nm (donor)] on an Envision plate reader, and data plotted using PRISM 6® software (Graphpad).

binding: binds
B1: AB1170019 (antibody, V domains shown)
VH: EVQLQQSGPELVKPGASVKIPCKASGYTFTDYNMDWVKQSHGKSLEWIGDINPNNGGTFYNQKFKDKATLTVDKSSSTAYMELRSLTSEDTAVYYCAREEKLYFGLMDYWGQGTSVTVSS
VL: DIQMTQSPASLSASVGETVTITCRASENIYSYLAWYQQKQGKSPQLLVYNAKTLAEGVPSRFSGSGSGIQFSLKINILQPEDFGNYYCQHQYGSPPTFGGGTKLEIK

— patent publication US20220281965A1 (AstraZeneca / MedImmune, published 2022)
